Ends that are not written are not given here.
Test system: panel of purified HLA DR molecules
Assay type: binding, human
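Note: competitive inhibition of radiolabeled probe peptide binding to purified HLA DR molecules, with inhibitory potency of unlabeled peptides taken as an approximation of affinity.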

| Compound | Total Alleles Bound |
| --- | --- |
| CC[C@H](C)[C@H](NC(=O)[C@H](CO)NC(=O)[C@H](CO)NC(=O)[C@H](CC(N)=O)NC(=O)[C@@H](NC(=O)[C@@H](NC(=O)[C@H](CC(N)=O)NC(=O)[C@@H](N)Cc1ccccc1)C(C)C)C(C)C)C(=O)NCC(=O)N[C@@H](CC(C)C)C(=O)N[C@H](C(=O)N[C@@H](CCSC)C(=O)N[C@H](C(=O)N[C@@H](CC(C)C)C(=O)N[C@@H](CO)C(=O)O)C(C)C)[C@@H](C)CC [Peptide 27.384] | 5 |
| CC(C)[C@H](NC(=O)[C@H](Cc1ccccc1)NC(=O)[C@H](CCCCN)NC(=O)[C@H](Cc1ccc(O)cc1)NC(=O)[C@H](C)N)C(=O)N[C@H](C(=O)N1CCC[C@H]1C(=O)NCC(=O)N[C@@H](C)C(=O)N[C@@H](C)C(=O)N[C@H](C(=O)N1CCC[C@H]1C(=O)N[C@@H](Cc1ccc(O)cc1)C(=O)N[C@@H](C)C(=O)NCC(=O)O)[C@@H](C)O)C(C)C [Peptide 27.412] | 8 |
| CC[C@H](C)[C@H](NC(=O)[C@H](CC(C)C)NC(=O)[C@H](Cc1ccccc1)NC(=O)[C@@H](NC(=O)[C@@H](NC(=O)[C@@H](NC(=O)[C@H](CC(C)C)NC(=O)[C@H](Cc1ccc(O)cc1)NC(=O)[C@H](CCCCN)NC(=O)[C@@H](NC(=O)[C@@H](N)CC(N)=O)C(C)C)C(C)C)[C@@H](C)CC)C(C)C)C(=O)N[C@@H](Cc1ccccc1)C(=O)N[C@@H](Cc1ccccc1)C(=O)N[C@@H](CC(=O)O)C(=O)N[C@@H](CC(C)C)C(=O)O [Peptide 27.415] | 3 |
| CC(C)C[C@H](NC(=O)CNC(=O)[C@H](C)N)C(=O)N[C@@H](CC(C)C)C(=O)NCC(=O)N[C@@H](CC(N)=O)C(=O)N[C@H](C(=O)N[C@@H](CO)C(=O)N[C@H](C(=O)N[C@H](C(=O)N[C@@H](CC(C)C)C(=O)N[C@@H](CC(C)C)C(=O)NCC(=O)NCC(=O)N[C@H](C(=O)O)C(C)C)C(C)C)[C@@H](C)O)C(C)C [Peptide 1188.13] | 5 |
| CC[C@H](C)[C@H](NC(=O)[C@H](CC(C)C)NC(=O)[C@H](CCCCN)NC(=O)[C@H](CCSC)NC(=O)[C@H](C)NC(=O)[C@H](CC(C)C)NC(=O)[C@@H]1CCCN1C(=O)[C@@H](NC(=O)[C@H](C)NC(=O)[C@H](Cc1c[nH]cn1)NC(=O)[C@H](CC(N)=O)NC(=O)[C@@H](NC(=O)[C@H](Cc1c[nH]c2ccccc12)NC(=O)[C@H](CC(N)=O)NC(=O)[C@@H](N)Cc1c[nH]cn1)C(C)C)C(C)C)C(=O)O [Peptide 1188.34] | 10 |
| CSCC[C@H](NC(=O)[C@H](C)NC(=O)[C@H](CC(C)C)NC(=O)[C@@H]1CCCN1C(=O)[C@@H](NC(=O)[C@H](C)NC(=O)[C@H](Cc1c[nH]cn1)NC(=O)[C@H](CC(N)=O)NC(=O)[C@@H](NC(=O)[C@H](Cc1c[nH]c2ccccc12)NC(=O)[C@H](CC(N)=O)NC(=O)[C@H](Cc1c[nH]cn1)NC(=O)[C@@H](N)CCCNC(=N)N)C(C)C)C(C)C)C(=O)N[C@@H](CCCCN)C(=O)N[C@@H](CC(C)C)C(=O)O [Peptide 1188.45] | 9 |
| CC(C)C[C@H](NC(=O)CNC(=O)[C@H](C)NC(=O)[C@H](CC(C)C)NC(=O)[C@@H](NC(=O)[C@H](CO)NC(=O)[C@@H](NC(=O)[C@H](C)NC(=O)[C@H](CC(C)C)NC(=O)[C@H](CCCCN)NC(=O)[C@H](Cc1ccc(O)cc1)NC(=O)[C@@H](N)CCCCN)[C@@H](C)O)C(C)C)C(=O)N[C@@H](CC(C)C)C(=O)NCC(=O)N[C@@H](CC(N)=O)C(=O)O [Peptide F107.09] | 9 |
| CC(C)C[C@H](NC(=O)CNC(=O)[C@H](C)NC(=O)[C@@H](N)CC(C)C)C(=O)N[C@@H](CC(C)C)C(=O)NCC(=O)N[C@@H](CC(N)=O)C(=O)N[C@H](C(=O)N[C@@H](CO)C(=O)N[C@H](C(=O)N[C@H](C(=O)N[C@@H](CC(C)C)C(=O)N[C@@H](CC(C)C)C(=O)NCC(=O)NCC(=O)O)C(C)C)[C@@H](C)O)C(C)C [Peptide F107.10] | 5 |
| CC(C)[C@H](NC(=O)[C@H](Cc1ccccc1)NC(=O)[C@@H](N)CCCCN)C(=O)N[C@H](C(=O)N1CCC[C@H]1C(=O)NCC(=O)N[C@@H](C)C(=O)N[C@@H](C)C(=O)N[C@H](C(=O)N1CCC[C@H]1C(=O)N[C@@H](Cc1ccc(O)cc1)C(=O)N[C@@H](C)C(=O)NCC(=O)N[C@@H](CCC(=O)O)C(=O)N1CCC[C@H]1C(=O)O)[C@@H](C)O)C(C)C [Peptide F107.17] | 4 |
| CC[C@H](C)[C@H](NC(=O)[C@H](CO)NC(=O)[C@H](CO)NC(=O)[C@H](CC(N)=O)NC(=O)[C@@H](NC(=O)[C@@H](NC(=O)[C@H](CC(N)=O)NC(=O)[C@H](Cc1ccccc1)NC(=O)[C@@H](N)C(C)C)C(C)C)C(C)C)C(=O)NCC(=O)N[C@@H](CC(C)C)C(=O)N[C@H](C(=O)N[C@@H](CCSC)C(=O)N[C@H](C(=O)N[C@@H](CC(C)C)C(=O)O)C(C)C)[C@@H](C)CC [Peptide F107.23] | 4 |
| GPPTALRSFGFAFGYM [Peptide 1136.29] | 7 |
| LFHYYFLSEKAPGSTV [Peptide 1136.04] | 6 |
| WLFPRFKFVWVTYASW [Peptide 1136.44.01] | 2 |

From patent EP1388586A2, “Identification of broadly reactive DR restricted epitopes” (priority 1998, dated 1999)
